# Reference: PubChem BioAssay AID624297 (National Center for Advancing Translational Sciences (NCATS), 2012)
# In all, about 340,000 compounds went through this assay and about 6,200 (1.8%) were called active. The inconclusive results got no clear call from the source; some entries with a clear call stand among them for comparison. Calls come from the whole dose curve; as a rule, active = well fitted activation curve with a large enough effect; inconclusive = small, poorly fitted or top-dose-only effect; inactive = no such curve, though single readings can be large or run the other way. Where the call is inconclusive, the potency comes from a doubtful curve fit.
# Assay: A quantitative high throughput screen for small molecules that induce DNA re-replication in SW480 colon adenocarcinoma cells. For re-replication activation: % of control where 0% means no effect. Note: nearly all actives have a fitted effect of over 55% in size.
# Settings: Hoechst DNA content imaging, 48 h; re-replication activation: at 46.1 µM (top of the series) unless noted
# How it was run: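 Image-based DNA-content assay: after two days of treatment, nuclei were labelled with the DNA dye Hoechst and imaged, and hits were compounds raising the count of nuclei showing high fluorescence intensity.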
# Potency is the fitted concentration of half-maximal effect.
SMILES,re-replication activation,Potency
O=C(Nc1cc([N+](=O)[O-])ccc1O)c1cccc(NC(=O)c2ccco2)c1,inactive: -0.594%,–
CCOc1ccc(NC(=O)CC(=O)Nc2ccc(OCC)cc2)cc1,inactive: -10.6%,–
CC(=O)c1ccc(N2CCN(C(=O)c3cccs3)C(C)C2)c(F)c1 (stereo not drawn),inactive: 1.78%,–
Cc1ccc(S(=O)(=O)N/N=C/c2ccc(O)c(O)c2)cc1[N+](=O)[O-],–,active: 20.6 µM
COc1ccc2ccccc2c1/C=N/NC(=O)c1cccc(C)c1,inactive: -5.67%,–
CC(C)COc1nc2ccccc2c(=O)n1OCC(=O)O,–,"inconclusive: 0.0065 µM [activator, full curve, poor fit]"
CCCn1c(C2CCCN2c2nc(-c3ccc(C)cc3)cs2)nc2ccccc21 (stereo not drawn),–,"inconclusive: 29.1 µM [activator, single point]"
C[C@H](O)[C@@H]1C(=O)N2CCc3ccc(-c4cccc(F)c4)cc3[C@@H]2C[C@@H]1N(C)C(=O)Nc1ccccc1,–,"inconclusive: 1.16 µM [activator, single point]"
Cc1ccc(N2CC(C(=O)Nc3ccccc3N3CCCC3)CC2=O)cc1 (stereo not drawn),–,"inconclusive: 18.4 µM [activator, single point]"
CCOC(=O)c1c(C)oc2c(CN3CCN(C)CC3)c(Br)c(OC)c(O)c12,inactive: -2.48%,–
Cc1cc(-c2ccc(/C=N/n3cnnc3)o2)ccc1Cl,inactive: -2.84%,–
CC(=O)c1ccc(-n2c(=O)[nH]c(=O)c3c(N)c(C(=O)c4ccc(Cl)cc4)sc32)cc1,–,active: 18.4 µM
CCN(CC)c1ccc(C=Nc2ccc(N(C)C)cc2)c(O)c1,–,"inconclusive: 29.1 µM [activator, single point]"
COc1cc(OC)cc(C(=O)Nc2ccc(C(=O)c3ccncc3)cc2)c1,inactive: 4.98%,–
COCCN1CCn2c(nc3cc(Nc4nnc(C)c5ccccc45)ccc32)C1,–,"inconclusive: 2.31 µM [activator, full curve, poor fit]"
O=C1C=CC(=O)N1c1ccc2c(c1)C(NC(=O)C(F)(F)F)c1ccccc1-2 (stereo not drawn),–,active: 8.2 µM
COc1cc(CN2CCC(C(=O)N3CCN(c4ccccc4F)CC3)CC2)cc(OC)c1O,inactive: 0.508%,–
O=C(/C=C/c1cccc([N+](=O)[O-])c1)N1CCN(c2ccccn2)CC1,inactive: -2.37%,–
CSc1nsc(/C=C/Nc2ccc(C(=O)O)cc2)c1C#N,–,"inconclusive: 10.3 µM [activator, partial curve, poor fit]"
COc1ccc(CCNC(=O)c2cc(=O)c3ccc(C)cc3o2)cc1OC,–,"inconclusive: 6.51 µM [activator, single point]"
Cc1ccc(NC(=O)Cc2ccc3c(c2)OCCO3)cc1S(=O)(=O)N1CCCCC1,inactive: 1.09%,–
CCc1c(C)nc2[nH]nc(-c3ccccc3C)n2c1=O,inactive: -2.81%,–
CCOC(=O)C1=C(COC(=O)/C=C/c2ccc([N+](=O)[O-])cc2)NC(=O)NC1C (stereo not drawn),–,"inconclusive: 16.4 µM [activator, single point]"
Cc1c(NC(=O)c2ccc3c(c2)C(=O)N(CC2CCCO2)C3=O)cccc1C(=O)O (stereo not drawn),–,active: 4.11 µM
CCOc1ccccc1C(=O)NC(C(=O)N(C)Cc1ccc2c(c1)OCO2)C(C)C (stereo not drawn),inactive: 7.62%,–

# Structural class: the compounds so far containing an aryl methoxy group.
SMILES,re-replication activation,Potency
COc1ccc2ccccc2c1/C=N/NC(=O)c1cccc(C)c1,inactive: -5.67%,–
CCOC(=O)c1c(C)oc2c(CN3CCN(C)CC3)c(Br)c(OC)c(O)c12,inactive: -2.48%,–
COc1cc(OC)cc(C(=O)Nc2ccc(C(=O)c3ccncc3)cc2)c1,inactive: 4.98%,–
COc1cc(CN2CCC(C(=O)N3CCN(c4ccccc4F)CC3)CC2)cc(OC)c1O,inactive: 0.508%,–
COc1ccc(CCNC(=O)c2cc(=O)c3ccc(C)cc3o2)cc1OC,–,"inconclusive: 6.51 µM [activator, single point]"

# Carrying on:

SMILES,re-replication activation,Potency
CC(NCC(=O)NC(=O)NCCC1=CCCCC1)c1ccc(S(N)(=O)=O)cc1 (stereo not drawn),–,"inconclusive: 23.1 µM [activator, single point]"
O=C(CCCN1C(=O)S/C(=C\C=C\c2ccccc2)C1=O)Nc1ccc(C(=O)O)cc1,–,"inconclusive: 29.1 µM [activator, single point]"
COc1ccc(NS(=O)(=O)c2ccc(NC(=O)c3ccccn3)cc2)cc1,inactive: -12.1%,–
CCCCCCCCC/C(=N\O)c1ccccn1,–,"inconclusive: 23.1 µM [activator, single point]"
Cc1cc(C)c(C)c(S(=O)(=O)N2CCN(C(=O)c3ccccc3OCc3c(C)noc3C)CC2)c1C,inactive: -16.9%,–
Fc1ccc(N=C2NN=C(c3cc(F)ccc3F)CS2)cc1,–,"inconclusive: 18.4 µM [activator, partial curve, poor fit]"
COc1ccc(-n2nc(C(=O)NCC(=O)Nc3cccc(Cl)c3)c3ccccc3c2=O)cc1,inactive: -2.84%,–
COc1ccc(-c2cn3c(C)c(C(=O)N4CCc5ccccc5C4)sc3n2)cc1,inactive: 19.3%,–
NC(=S)NNC(=S)Nc1ccccc1,–,"inconclusive: 18.4 µM [activator, single point]"
CC[N+](CC)(CC)CC(=O)Nc1c(C)cccc1C,–,"inconclusive: 1.26 µM [activator, single point]"
Cc1cc(C(=O)COc2cc(F)ccc2[N+](=O)[O-])c(C)n1C1CC1,–,"inconclusive: 29.1 µM [activator, single point]"
Cc1oc2ccccc2c1-c1cn2c(n1)SCC2,inactive: 4.24%,–
COc1ccccc1[C@H]1C(c2cccc(Cl)c2)=NN(c2ccccc2)[C@@H]1CO,–,"inconclusive: 0.82 µM [activator, full curve, poor fit]"
COc1ccc(CC(=O)Nc2ccc(N3CCCC3)c(C)c2)cc1,inactive: -5.46%,–
Cc1cccn2c(=O)c3cc(C(=O)NC4CCCC4)c(=N)n(CC4CCCO4)c3nc12 (stereo not drawn),–,"inconclusive: 3.66 µM [activator, single point]"
Nc1c(C(=O)Nc2nccs2)sc2nc(-c3cccs3)cc(C(F)(F)F)c12,–,"inconclusive: 18.4 µM [activator, single point]"
O=C(NCc1ccccn1)Nc1ccccc1Cl,–,"inconclusive: 29.1 µM [activator, single point]"
CC1CN(CCOCCSc2ccc(Cl)cc2)CC(C)O1 (stereo not drawn),inactive: -1.54%,–
Cc1sc2ncnc(SCc3ccc(C(=O)O)cc3)c2c1C,–,"inconclusive: 4.61 µM [activator, single point]"
CC(C(=O)Nc1ccccc1-c1ccccc1)N(C)Cc1nc2ccccc2c(=O)[nH]1 (stereo not drawn),–,"inconclusive: 10.3 µM [activator, partial curve, poor fit]"
Cc1cc(OCC(=O)N2CCC(C(=O)O)CC2)c2c(C)cc(=O)oc2c1,inactive: -4.88%,–
COc1ccc(CCC(=O)NNC(=O)c2ccccn2)cc1OC,–,"inconclusive: 29.1 µM [activator, partial curve, poor fit]"
O=C(/C=C/c1cccs1)Nc1sc2c(c1C(=O)O)CCCC2,–,"inconclusive: 29.1 µM [activator, single point]"
O=C(N/N=C(\Cc1ncc[nH]1)c1ccccc1)c1cccnc1,–,"inconclusive: 5.17 µM [activator, full curve, poor fit]"
CCN(CCCNC(=O)Cn1ncc2c([nH]c3ccccc32)c1=O)Cc1ccccc1,–,"inconclusive: 1.46 µM [activator, partial curve, poor fit]"

SMILES,re-replication activation,Potency
COc1ccc(CN2CCCC(CO)(Cc3ccc(F)cc3F)C2)cc1 (stereo not drawn),inactive: -2.04%,–
Cc1ccc(C(=O)O/N=C\c2ccc(N3CCOCC3)c([N+](=O)[O-])c2)cc1,–,"inconclusive: 16.4 µM [activator, single point]"
CCOC(=O)c1c(NC(=O)CSc2nc3ccc(C)cc3[nH]2)sc2c1CC(C)(C)NC2(C)C,–,"inconclusive: 29.1 µM [activator, single point]"
S=C(Nc1ccc(Cl)cc1)Nc1ccc2cn[nH]c2c1,–,"inconclusive: 18.4 µM [activator, partial curve, poor fit]"
CCOc1ccc(C(Nc2cccnc2)c2cc(Cl)c3cccnc3c2O)cc1 (stereo not drawn),–,"inconclusive: 4.11 µM [activator, single point]"
O=C(Nc1ccccc1)Nc1cccc(NC(=O)Nc2ccccc2)c1F,–,"inconclusive: 1.78 µM [activator, partial curve, poor fit]"
Cc1ccc(Oc2nc3c(c(=O)n(Cc4ccccc4F)c(=O)n3C)n2C)cc1,inactive: -6.74%,–
O=C(NN=C1CCCC1)c1cccs1,–,"inconclusive: 6.51 µM [activator, single point]"
Cc1ccc(-c2cc(C(=O)N3CCN(c4ccc(O)cc4)CC3)c3ccccc3n2)cc1,inactive: 0.549%,–
COc1ccccc1C(=O)NC(=O)COC(=O)CNC(=O)c1ccc(Cl)cc1Cl,inactive: -2.5%,–
Cc1ccc(S(=O)(=O)Nc2ccccc2CNc2ccc(Br)cn2)cc1,–,"inconclusive: 25.9 µM [activator, single point]"
COc1ccc2c(/C=C/c3cc[n+](C)cc3)c[nH]c2c1,inactive: -1.15%,–
CC(=O)NC(c1cccc([N+](=O)[O-])c1)c1ccc2cccnc2c1O (stereo not drawn),–,"inconclusive: 0.731 µM [activator, full curve, poor fit]"
CC[C@H](C)Cc1cn([C@@H](CCCCNC(=O)OC(C)(C)C)C(=O)NCCCCCCCCCCC(=O)N2CCN(C(=O)OC(C)(C)C)CC2)nn1,inactive: -5.06%,–
Cc1ccc(-c2nnc(N)o2)cc1,–,"inconclusive: 0.206 µM [activator, full curve, poor fit]"
O=C(NCCc1ccc(C(F)(F)F)cc1)C1CCC(=O)N(CCCc2ccccc2)C1 (stereo not drawn),–,"inconclusive: 5.8 µM [activator, partial curve, poor fit]"
O=C(COC(=O)c1ccc(Br)c(S(=O)(=O)N2CCOCC2)c1)NC1CC1,inactive: -7.84%,–
Cc1ccccc1OCc1nc(C#N)c(N2CCCC2)o1,inactive: -8.54%,–
CCOc1ccc(NC(=O)N2CCC(n3nnc4cc(C)ccc43)CC2)cc1,–,active: 14.6 µM
Cc1ccc(/C=N/NC(=O)c2ccoc2C)o1,inactive: 0.675%,–
CCc1cc(C(=O)N/N=C/c2ccc(O)cc2O)c2ccccc2n1,–,"inconclusive: 1.84 µM [activator, full curve, poor fit]"
N#C/C(=C\c1c[nH]c2ccc(Br)cc12)c1ccccn1,–,"inconclusive: 18.4 µM [activator, single point]"
CCOC(=O)c1c(S(=O)(=O)NCC(=O)NCc2ccccc2Cl)c(C)n(C)c1C,–,"inconclusive: 29.1 µM [activator, single point]"

# Two consecutive records already listed, for reference:
SMILES,re-replication activation,Potency
CCOc1ccc(C(Nc2cccnc2)c2cc(Cl)c3cccnc3c2O)cc1 (stereo not drawn),–,"inconclusive: 4.11 µM [activator, single point]"
O=C(Nc1ccccc1)Nc1cccc(NC(=O)Nc2ccccc2)c1F,–,"inconclusive: 1.78 µM [activator, partial curve, poor fit]"
